Record: PubChem BioAssay AID1259276 (Sanger Institute, 2017)
In all, the deposit lists 794 reagents; this is a part drawn at random. In the full data, 24 (3%) got an active call. 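Calls come only from the siRNA-alone arm; drug synergy scores do not affect them.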 No viability above 1 is reported: the scale is capped. The record does not give: the amount of reagent, the time to read-out.

Test: 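Find kinases whose silencing cuts viability alone or combined with BYL719, cetuximab or trametinib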 (primary screen)
Cell system: human C2BBe1 colorectal cancer cells
Knock-down reagent: siRNA pool against human genes
Challenge: DMSO vehicle, or one anchor drug: BYL719 at 1 µM, cetuximab at 5 µg/ml, or trametinib at 10 nM; exposure length not stated
Read-out: 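Cell viability as a fraction of non-targeting control wells, mean of replicates, also as a control-based robust z-score, plus a synergy score for each anchor drug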
Scale: viability robust z-score, siRNA alone and viability vs control, siRNA alone: higher = more viable cells after knock-down; synergy score with BYL719: higher = stronger combined killing with BYL719; synergy score with cetuximab: higher = stronger combined killing with cetuximab; synergy score with trametinib: higher = stronger combined killing with trametinib
Call rule: 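a siRNA pool tested without drug is essential if its viability robust z-score falls under -3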
Calls: active = essential (siRNA alone); inactive = no change (siRNA alone)

| target | viability robust z-score, siRNA alone | viability vs control, siRNA alone | synergy score with BYL719 | synergy score with cetuximab | synergy score with trametinib | Call |
| --- | --- | --- | --- | --- | --- | --- |
| NTRK3 | 0.472 | 1 | -0.142 | -0.0115 | -0.0667 | inactive |
| PTK7 | -4.23 | 0.704 | -0.101 | -0.127 | -0.303 | active |
| PCK1 | -2.2 | 0.832 | 0.0294 | -0.178 | -0.112 | inactive |
| BRSK2 | 0.472 | 1 | -0.0569 | 0.0861 | -0.0415 | inactive |
| DYRK1B | 0.472 | 1 | -0.142 | -0.0115 | -0.0667 | inactive |
| MET | 0.472 | 1 | -0.142 | 0.0524 | -0.0667 | inactive |
| MAPK4 | 0.472 | 1 | 0.0022 | 0.00518 | 0.216 | inactive |
| WNK2 | 0.472 | 1 | -0.126 | -0.0115 | -0.0667 | inactive |
| TPD52L3 | 0.472 | 1 | -0.0956 | 0.0173 | 0.173 | inactive |
| TNK2 | 0.472 | 1 | -0.105 | 0.027 | -0.0667 | inactive |
| PKDCC | -1.06 | 0.903 | 0.00818 | -0.107 | -0.157 | inactive |
| POLR2B | 0.472 | 1 | -0.131 | 0.29 | -0.0616 | inactive |

As entered above:
PCK1, Call → inactive
NTRK3, synergy score with trametinib = -0.0667
Entry of POLR2B in “Call”: inactive

Next records:
| target | viability robust z-score, siRNA alone | viability vs control, siRNA alone | synergy score with BYL719 | synergy score with cetuximab | synergy score with trametinib | Call |
| --- | --- | --- | --- | --- | --- | --- |
| COMMD3 | 0.472 | 1 | 0.0601 | 0.0674 | 0.124 | inactive |
| MYH10 | 0.472 | 1 | -0.142 | 0.0747 | -0.0667 | inactive |
| STK32B | 0.472 | 1 | -0.0148 | -0.0115 | -0.0667 | inactive |
| PAPSS1 | 0.472 | 1 | -0.112 | -0.0115 | -0.0667 | inactive |
| NF1 | 0.472 | 1 | -0.0549 | -0.0115 | -0.0667 | inactive |
| PRKDC | 0.472 | 1 | -0.0298 | 0.0523 | -0.0667 | inactive |
| EFNB3 | 0.472 | 1 | 0.0984 | -0.0115 | 0.264 | inactive |
| GCK | -3.03 | 0.779 | 0.313 | -0.0177 | -0.0495 | active |
